Measurements reported in PubChem BioAssay AID2685 (National Center for Advancing Translational Sciences (NCATS), 2010).
The list shows a part of the results. Shown are side measurements of this screen, not its main read-out; they come without a call. The list favours compounds with an active or inconclusive main result. Potencies come from curve fits of mixed quality, noted in brackets.

Assay: qHTS Assay for Lipid Storage Modulators in Drosophila S3 Cells;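 on cell number change: cells counted by Cell Tracker Red CMTPX staining in the red channel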
Settings: BODIPY lipid droplet fluorescence, 18-24 h; for cell number change: measured here: cell count max response, cells fed with added oleic acid
Method in brief: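 Drosophila S3 cells loaded with oleic acid (400 uM, as added) and compounds at several concentrations; lipid droplets imaged by 488-nm laser-scanning cytometry, 500–530 nm intensity and object ratio to cell channel. Percent activity normalized to 20 uM Triacsin C.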

[1] = measured here: lipid fluorescence (Fed channel) AC50, cells fed with added oleic acid
[2] = measured here: cell number channel AC50, cells fed with added oleic acid

SMILES	cell number change	AC50 [1]	AC50 [2]
Cc1occc1C(=O)NCCc1ccc(Cl)cc1	20.9%	29.1 µM [rising, single point]	–
Nc1cccc2c1C(=O)N(Cc1nnc(-c3ccccc3Br)o1)C2=O	29.8%	–	–
O=C(CSc1nnnn1-c1cccnc1)NCc1cccs1	1.95%	0.461 µM [rising, full curve, poor fit]	–
O=C(N/N=C/c1cccnc1)c1cc2ccccc2cc1O	7.18%	20 µM [rising, partial curve, poor fit]	–
CN(C)S(=O)(=O)c1cc(NC(=O)c2ccc(-n3ccnc3)c([N+](=O)[O-])c2)ccc1Cl	–	14.6 µM [falling, partial curve]	–
COc1ccc(N(C(=O)c2ccco2)S(=O)(=O)c2ccccc2)cc1	12.8%	–	–
N#Cc1c(N)n(CCCN2CCOCC2)c2nc3ccccc3nc12	2.59%	–	–
COc1ccc(N(C(=O)c2ccco2)C(C(=O)NC2CCCC2)c2cccnc2)c(OC)c1 (stereo not given)	9.52%	–	–
CC(=O)NCCc1nc2ccccc2n1CCCCOc1ccccc1	2.6%	1.03 µM [rising, full curve, poor fit]	–
COc1ccc(-c2c[n+](CC(=O)OC3CC(C)CCC3C(C)C)c3n2CCC3)cc1 (stereo not given)	-54.7%	4.61 µM [falling, full curve]	4.61 µM [falling, full curve, poor fit]
O=S(=O)(Nc1cc(Sc2cccc3cccnc23)c(O)c2ccccc12)c1ccccc1	-59.6%	2.31 µM [falling, full curve]	11.6 µM [falling, partial curve]
CC1CCCN(C(=O)c2ccc([N+](=O)[O-])o2)C1 (stereo not given)	13.5%	0.794 µM [falling, full curve, poor fit]	–
CCn1c(SCC(=O)N/N=C/C(C)=C/c2ccco2)nnc1-c1ccccc1	6%	0.103 µM [rising, full curve, poor fit]	–
CC(C)(CNc1ccc(C(F)(F)F)cc1[N+](=O)[O-])N1CCOCC1	-3.18%	23.1 µM [falling, single point]	–
CCN(c1ccccc1)S(=O)(=O)c1ccc(C(=O)N2CC(C)CC(C)C2)cc1 (stereo not given)	26.3%	1.03 µM [rising, partial curve, poor fit]	–
C=CCn1c(SCC(=O)N(CC)C2CCS(=O)(=O)C2)nnc1-c1ccccc1 (stereo not given)	10.9%	–	–
Fc1ccccc1NC(=S)NCCc1ccc(Cl)cc1	2.31%	0.206 µM [rising, partial curve, poor fit]	–
COc1ccc2[nH]c(=O)c(CN(Cc3nnnn3CCc3ccccc3)CC3CCCO3)cc2c1 (stereo not given)	106%	5.17 µM [rising, single point]	1.3 µM [rising, full curve]
COc1ccc(OC)c(C2NC(=O)c3sc(=S)n(-c4ccccc4)c3N2)c1 (stereo not given)	-36.5%	–	–
Cc1c(N2C(=O)CS/C2=N\N=C\c2ccc(Br)cc2)c(=O)n(-c2ccccc2)n1C	12.1%	3.26 µM [falling, single point]	–

SMILES	cell number change	AC50 [1]	AC50 [2]
Cc1[nH]c2ccccc2c1C(=O)COC(=O)C1CC(O)CN1S(=O)(=O)c1ccc(Cl)cc1 (stereo not given)	15.4%	0.517 µM [rising, full curve]	–
CCOc1ccc(OCc2cccc(C(=O)N/N=C/c3cccnc3)c2)cc1	-15.1%	0.0461 µM [rising, partial curve, poor fit]	–
CCC(C)c1ccc(OCCn2cc(/C=N/NC(=O)CSc3nnc(C)s3)c3ccccc32)cc1 (stereo not given)	-31.8%	29.1 µM [falling, single point]	29.1 µM [falling, single point]
CCOc1ccc(C(=O)CCN2CCCCC2)cc1	1.22%	29.1 µM [falling, single point]	–
Cc1ccc(CSc2nnc(Nc3ccc(C)cc3)s2)cc1	1.95%	–	–
Cc1cc[n+](CC(=O)c2cccs2)cc1	-47.2%	0.184 µM [falling, full curve, poor fit]	18.4 µM [falling, partial curve, poor fit]
N#C/C(=C\c1ccncc1)c1nc2ccccc2c(=O)[nH]1	–	–	1.84 µM [rising, partial curve]
COc1ccccc1-c1c(C)oc2cc(OC(=O)c3ccco3)ccc2c1=O	-29.2%	–	–
CC1CN(S(=O)(=O)c2ccc(NC(=O)CCN3C(=O)c4ccccc4C3=O)cc2)CC(C)O1 (stereo not given)	23.3%	–	–
CCn1cc(C(=O)O)c(=O)c2cc(F)c(N3CCN(C(=S)NC(=O)c4ccccc4Br)CC3)cc21	18.5%	–	–
Nc1nnc(SCn2nnc3ccccc3c2=O)s1	-1.56%	1.64 µM [rising, partial curve]	–
COc1ccc(NC(=O)c2oc3ccccc3c2CSC)cn1	–	20.6 µM [falling, partial curve]	–
O=C(COC(=O)c1ccc(O)cc1O)NCCN1C(=O)CSC1=O	14.4%	25.9 µM [rising, single point]	–
NC(=O)c1cc2cc([N+](=O)[O-])ccc2oc1=O	–	7.31 µM [rising, single point]	–
CCn1c(SCC(=O)Nc2nc(C)cs2)nnc1-c1ccco1	124%	–	7.31 µM [rising, partial curve]
CCCCCCC(=O)Nc1cc2c(C)cc(=O)oc2cc1C	–	0.116 µM [rising, full curve, poor fit]	–
COc1ccc(C(=O)Nc2ccc(S(=O)(=O)Nc3nccc(C)n3)cc2)cc1[N+](=O)[O-]	11.1%	11.6 µM [rising, partial curve]	–
COc1cc(S(=O)(=O)n2nc(C)cc2C)c(OC)cc1Cl	–	2.91 µM [rising, partial curve, poor fit]	2.91 µM [rising, partial curve]
CCOC(=O)c1cc(-c2ccccc2)n(CC(=O)Nc2ccc(OCC)cc2)c1C	-15.9%	25.9 µM [falling, single point]	–
COc1ccc(Cl)cc1C(=O)OCC(=O)NC(=O)c1cccn1C	68.8%	–	14.6 µM [rising, single point]

Reprinted from the results shown (two entries):
SMILES	cell number change	AC50 [1]	AC50 [2]
COc1ccc(C(=O)Nc2ccc(S(=O)(=O)Nc3nccc(C)n3)cc2)cc1[N+](=O)[O-]	11.1%	11.6 µM [rising, partial curve]	–
COc1cc(S(=O)(=O)n2nc(C)cc2C)c(OC)cc1Cl	–	2.91 µM [rising, partial curve, poor fit]	2.91 µM [rising, partial curve]
